In publication doi:10.1101/2022.04.01.486681:
These are yes or no findings as the source states them, for the method shown. In cells and extracts the contact can be indirect. Binding can be weak; no strength is given.

By UniProt entry, the sequences of proteins in these tests, tags left out. Where a name states a change or a piece, a line headed by the entry shows the natural chain unless it says otherwise.
UniProt Q4F883: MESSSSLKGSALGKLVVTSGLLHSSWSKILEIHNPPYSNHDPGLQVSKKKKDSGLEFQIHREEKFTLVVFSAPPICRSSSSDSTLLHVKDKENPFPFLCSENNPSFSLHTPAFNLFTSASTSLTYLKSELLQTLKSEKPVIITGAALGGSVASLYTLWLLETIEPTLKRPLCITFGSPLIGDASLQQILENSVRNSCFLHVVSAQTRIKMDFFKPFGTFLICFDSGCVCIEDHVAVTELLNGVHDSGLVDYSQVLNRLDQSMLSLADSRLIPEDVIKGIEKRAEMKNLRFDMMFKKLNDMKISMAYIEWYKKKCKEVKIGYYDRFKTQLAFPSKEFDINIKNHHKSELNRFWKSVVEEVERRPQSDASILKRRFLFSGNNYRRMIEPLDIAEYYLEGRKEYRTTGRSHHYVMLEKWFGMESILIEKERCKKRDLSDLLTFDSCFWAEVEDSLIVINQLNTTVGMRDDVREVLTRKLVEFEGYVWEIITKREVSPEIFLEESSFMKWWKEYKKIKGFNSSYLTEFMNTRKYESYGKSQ

Molecular target: SAG101 (Senescence-Associated Gene 101) (Arabidopsis) (UniProt Q4F883)
Test: co-purification

B1: EDS1 (Enhanced Disease Susceptibility 1) (protein, UniProt Q9XF23 1-623)
chain: MAFEALTGINGDLITRSWSASKQAYLTERYHKEEAGAVVIFAFQPSFSEKDFFDPDNKSSFGEIKLNRVQFPCMRKIGKGDVATVNEAFLKNLEAVIDPRTSFQASVEMAVRSRKQIVFTGHSSGGATAILATVWYLEKYFIRNPNVYLEPRCVTFGAPLVGDSIFSHALGREKWSRFFVNFVTRFDIVPRITLARKASVEETLPHVLAQLDPRNSSVQESEQRITEFYTSVMRDTSTVANQAVCELTGSAEAILETLSSFLELSPYRPAGTFVFSTEKRLVAVNNSDAILQMLFYTCQASDEQEWSLIPFRSIRDHHSYEELVQSMGMKLFNHLDGENSIESSLNDLGVSTRGRQYVQAALEEEKKRVENQKKIIQVIQQERFLKKLAWIEDEYKPKCQAHKNGYYDSFKVSNEENDFKANVKRAELAGVFDEVLGLLKKCQLPDEFEGDIDWIKLATRYRRLVEPLDIANYHRHLKNEDTGPYMKRGRPTRYIYAQRGYEHHILKPNGMIAEDVFWNKVNGLNLGLQLEEIQETLKNSGSECGSCFWAEVEELKGKPYEEVEVRVKTLEGMLREWITAGEVDEKEIFLEGSTFRKWWITLPKNHKSHSPLRDYMMDEITDT
binding: binds
